Here are results for one substance from PMC12386624.

Amino acid sequences for entries named in this document (tags omitted). A change or cut given only in a name is not applied to a line headed by its entry. Chains listed by the source or under a name are the forms on record and can include a tag or linker.
UniProt P18850: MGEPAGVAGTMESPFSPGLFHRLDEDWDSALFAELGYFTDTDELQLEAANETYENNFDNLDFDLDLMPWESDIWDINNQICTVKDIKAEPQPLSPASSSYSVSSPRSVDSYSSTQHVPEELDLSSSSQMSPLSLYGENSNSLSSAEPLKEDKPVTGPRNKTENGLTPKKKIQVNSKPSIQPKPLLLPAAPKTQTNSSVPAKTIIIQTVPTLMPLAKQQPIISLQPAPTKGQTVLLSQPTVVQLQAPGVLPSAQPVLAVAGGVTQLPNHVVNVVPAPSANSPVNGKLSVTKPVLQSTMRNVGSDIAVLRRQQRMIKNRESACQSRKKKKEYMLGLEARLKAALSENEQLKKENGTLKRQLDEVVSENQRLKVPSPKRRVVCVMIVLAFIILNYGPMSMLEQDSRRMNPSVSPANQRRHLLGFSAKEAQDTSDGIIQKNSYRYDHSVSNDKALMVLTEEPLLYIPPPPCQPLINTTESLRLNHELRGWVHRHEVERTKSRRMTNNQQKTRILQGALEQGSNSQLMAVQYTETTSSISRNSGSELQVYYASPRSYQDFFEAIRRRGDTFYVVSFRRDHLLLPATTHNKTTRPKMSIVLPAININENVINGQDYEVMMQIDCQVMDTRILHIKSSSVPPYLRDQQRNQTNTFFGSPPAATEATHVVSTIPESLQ
STK26 (MST4) (Q9P289-3, form named): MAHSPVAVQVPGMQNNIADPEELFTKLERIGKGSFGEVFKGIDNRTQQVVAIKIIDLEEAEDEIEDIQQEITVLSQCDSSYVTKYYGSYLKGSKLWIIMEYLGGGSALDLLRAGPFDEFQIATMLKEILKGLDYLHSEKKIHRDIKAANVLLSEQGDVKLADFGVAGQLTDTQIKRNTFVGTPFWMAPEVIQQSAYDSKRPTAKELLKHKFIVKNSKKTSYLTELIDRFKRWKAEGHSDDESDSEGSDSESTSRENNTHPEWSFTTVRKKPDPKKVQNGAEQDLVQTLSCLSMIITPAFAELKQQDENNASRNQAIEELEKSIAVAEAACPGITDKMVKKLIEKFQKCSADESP

The target of the assay is 90 kDa ATF6 (p90) (human (endogenous in SW480)) (UniProt P18850). Description: co-IP; endogenous proteins in SW480 cell lysate; lysis buffer 20 mM Tris-HCl pH 7.4, 150 mM NaCl, 0.5% Triton X-100 with protease and phosphatase inhibitors; 1-3 μg antibody and protein A/G agarose beads, 4 °C overnight; three washes, SDS-PAGE.

No constants are given. Whether binding was seen depends on the method and setting. Binding seen in cells or lysates may run through a third protein. Some entries that bind do so weakly or less than the wild type.

In the case of “STK26 (MST4) (from UniProt Q9P289-3 1-354) (enzyme)”, the binding result is reported as “binds”.
